# Reference: US11220671B2, “Methods for the maturation of cardiomyocytes on amniotic fluid cell-derived ECM, cellular constructs, and uses for cardiotoxicity and proarrhythmic screening of drug compounds” (STEMBIOSYS, INC., priority 2019, dated 2022)
# B1: Microtubule-associated protein 4 (protein, UniProt P27816 2-1152, looked up)
# Microtubule-associated …: ADLSLADALTEPSPDIEGEIKRDFIATLEAEAFDDVVGETVGKTDYIPLLDVDEKTGNSESKKKPCSETSQIEDTPSSKPTLLANGGHGVEGSDTTGSPTEFLEEKMAYQEYPNSQNWPEDTNFCFQPEQVVDPIQTDPFKMYHDDDLADLVFPSSATADTSIFAGQNDPLKDSYGMSPCNTAVVPQGWSVEALNSPHSESFVSPEAVAEPPQPTAVPLELAKEIEMASEERPPAQALEIMMGLKTTDMAPSKETEMALAKDMALATKTEVALAKDMESPTKLDVTLAKDMQPSMESDMALVKDMELPTEKEVALVKDVRWPTETDVSSAKNVVLPTETEVAPAKDVTLLKETERASPIKMDLAPSKDMGPPKENKKETERASPIKMDLAPSKDMGPPKENKIVPAKDLVLLSEIEVAQANDIISSTEISSAEKVALSSETEVALARDMTLPPETNVILTKDKALPLEAEVAPVKDMAQLPETEIAPAKDVAPSTVKEVGLLKDMSPLSETEMALGKDVTPPPETEVVLIKNVCLPPEMEVALTEDQVPALKTEAPLAKDGVLTLANNVTPAKDVPPLSETEATPVPIKDMEIAQTQKGISEDSHLESLQDVGQSAAPTFMISPETVTGTGKKCSLPAEEDSVLEKLGERKPCNSQPSELSSETSGIARPEEGRPVVSGTGNDITTPPNKELPPSPEKKTKPLATTQPAKTSTSKAKTQPTSLPKQPAPTTIGGLNKKPMSLASGLVPAAPPKRPAVASARPSILPSKDVKPKPIADAKAPEKRASPSKPASAPASRSGSKSTQTVAKTTTAAAVASTGPSSRSPSTLLPKKPTAIKTEGKPAEVKKMTAKSVPADLSRPKSTSTSSMKKTTTLSGTAPAAGVVPSRVKATPMPSRPSTTPFIDKKPTSAKPSSTTPRLSRLATNTSAPDLKNVRSKVGSTENIKHQPGGGRAKVEKKTEAAATTRKPESNAVTKTAGPIASAQKQPAGKVQIVSKKVSYSHIQSKCGSKDNIKHVPGGGNVQIQNKKVDISKVSSKCGSKANIKHKPGGGDVKIESQKLNFKEKAQAKVGSLDNVGHLPAGGAVKTEGGGSEAPLCPGPPAGEEPAISEAAPEAGAPTSASGLNGHPTLSGGGDQREAQTLDSQIQETSI
# B2: Ribosome-binding protein 1 (protein, UniProt Q9P2E9 1-1410, looked up)
# Ribosome-binding protein 1: MDIYDTQTLGVVVFGGFMVVSAIGIFLVSTFSMKETSYEEALANQRKEMAKTHHQKVEKKKKEKTVEKKGKTKKKEEKPNGKIPDHDPAPNVTVLLREPVRAPAVAVAPTPVQPPIIVAPVATVPAMPQEKLASSPKDKKKKEKKVAKVEPAVSSVVNSIQVLTSKAAILETAPKEVPMVVVPPVGAKGNTPATGTTQGKKAEGTQNQSKKAEGAPNQGRKAEGTPNQGKKTEGTPNQGKKAEGTPNQGKKAEGTPNQGKKAEGAQNQGKKVDTTPNQGKKVEGAPTQGRKAEGAQNQAKKVEGAQNQGKKAEGAQNQGKKGEGAQNQGKKAEGAQNQGKKAEGAQNQGKKAEGAQNQGKKAEGAQNQGKKAEGAQNQGKKAEGAQNQGKKVEGAQNQGKKAEGAQNQGKKAEGAQNQGKKAEGAQNQGKKAEGAQNQGKKAEGAQNQGKKAEGAQNQGKKAEGAQNQGKKVEGAQNQGKKAEGAQNQGKKAEGAQNQGKKAEGAQNQGQKGEGAQNQGKKTEGAQGKKAERSPNQGKKGEGAPIQGKKADSVANQGTKVEGITNQGKKAEGSPSEGKKAEGSPNQGKKADAAANQGKKTESASVQGRNTDVAQSPEAPKQEAPAKKKSGSKKKGEPGPPDADGPLYLPYKTLVSTVGSMVFNEGEAQRLIEILSEKAGIIQDTWHKATQKGDPVAILKRQLEEKEKLLATEQEDAAVAKSKLRELNKEMAAEKAKAAAGEAKVKKQLVAREQEITAVQARMQASYREHVKEVQQLQGKIRTLQEQLENGPNTQLARLQQENSILRDALNQATSQVESKQNAELAKLRQELSKVSKELVEKSEAVRQDEQQRKALEAKAAAFEKQVLQLQASHRESEEALQKRLDEVSRELCHTQSSHASLRADAEKAQEQQQQMAELHSKLQSSEAEVRSKCEELSGLHGQLQEARAENSQLTERIRSIEALLEAGQARDAQDVQASQAEADQQQTRLKELESQVSGLEKEAIELREAVEQQKVKNNDLREKNWKAMEALATAEQACKEKLLSLTQAKEESEKQLCLIEAQTMEALLALLPELSVLAQQNYTEWLQDLKEKGPTLLKHPPAPAEPSSDLASKLREAEETQSTLQAECDQYRSILAETEGMLRDLQKSVEEEEQVWRAKVGAAEEELQKSRVTVKHLEEIVEKLKGELESSDQVREHTSHLEAELEKHMAAASAECQNYAKEVAGLRQLLLESQSQLDAAKSEAQKQSDELALVRQQLSEMKSHVEDGDIAGAPASSPEAPPAEQDPVQLKTQLEWTEAILEDEQTQRQKLTAEFEEAQTSACRLQEELEKLRTAGPLESSETEEASQLKERLEKEKKLTSDLGRAATRLQELLKTTQEQLAREKDTVKKLQEQLEKAEDGSSSKEGTSV
# B3: Heterogeneous nuclear ribonucleoprotein M (protein, UniProt P52272 2-730, looked up)
# Heterogeneous nuclear …: AAGVEAAAEVAATEIKMEEESGAPGVPSGNGAPGPKGEGERPAQNEKRKEKNIKRGGNRFEPYANPTKRYRAFITNIPFDVKWQSLKDLVKEKVGEVTYVELLMDAEGKSRGCAVVEFKMEESMKKAAEVLNKHSLSGRPLKVKEDPDGEHARRAMQKVMATTGGMGMGPGGPGMITIPPSILNNPNIPNEIIHALQAGRLGSTVFVANLDYKVGWKKLKEVFSMAGVVVRADILEDKDGKSRGIGTVTFEQSIEAVQAISMFNGQLLFDRPMHVKMDERALPKGDFFPPERPQQLPHGLGGIGMGLGPGGQPIDANHLNKGIGMGNIGPAGMGMEGIGFGINKMGGMEGPFGGGMENMGRFGSGMNMGRINEILSNALKRGEIIAKQGGGGGGGSVPGIERMGPGIDRLGGAGMERMGAGLGHGMDRVGSEIERMGLVMDRMGSVERMGSGIERMGPLGLDHMASSIERMGQTMERIGSGVERMGAGMGFGLERMAAPIDRVGQTIERMGSGVERMGPAIERMGLSMERMVPAGMGAGLERMGPVMDRMATGLERMGANNLERMGLERMGANSLERMGLERMGANSLERMGPAMGPALGAGIERMGLAMGGGGGASFDRAIEMERGNFGGSFAGSFGGAGGHAPGVARKACQIFVRNLPFDFTWKMLKDKFNECGHVLYADIKMENGKSKGCGVVKFESPEVAERACRMMNGMKLSGREIDVRIDRNA
# B4: Keratin, type I cytoskeletal 9 (protein, UniProt P35527 1-623, looked up)
# Keratin, type I cytoskeletal 9: MSCRQFSSSYLSRSGGGGGGGLGSGGSIRSSYSRFSSSGGGGGGGRFSSSSGYGGGSSRVCGRGGGGSFGYSYGGGSGGGFSASSLGGGFGGGSRGFGGASGGGYSSSGGFGGGFGGGSGGGFGGGYGSGFGGFGGFGGGAGGGDGGILTANEKSTMQELNSRLASYLDKVQALEEANNDLENKIQDWYDKKGPAAIQKNYSPYYNTIDDLKDQIVDLTVGNNKTLLDIDNTRMTLDDFRIKFEMEQNLRQGVDADINGLRQVLDNLTMEKSDLEMQYETLQEELMALKKNHKEEMSQLTGQNSGDVNVEINVAPGKDLTKTLNDMRQEYEQLIAKNRKDIENQYETQITQIEHEVSSSGQEVQSSAKEVTQLRHGVQELEIELQSQLSKKAALEKSLEDTKNRYCGQLQMIQEQISNLEAQITDVRQEIECQNQEYSLLLSIKMRLEKEIETYHNLLEGGQEDFESSGAGKIGLGGRGGSGGSYGRGSRGGSGGSYGGGGSGGGYGGGSGSRGGSGGSYGGGSGSGGGSGGGYGGGSGGGHSGGSGGGHSGGSGGNYGGGSGSGGGSGGGYGGGSGSRGGSGGSHGGGSGFGGESGGSYGGGEEASGSGGGYGGGSGKSSHS
# Experiment: Composition of amniotic fluid cell-derived ECM by mass spectrometry (total spectra count)
# Details: protein component found by mass spectrometry in amniotic fluid cell-derived ECM Matrix A (Example 1)
row,Molecule,Total Spectra Count Matrix A
1,B1,35
2,B2,34
3,B3,30
4,B4,31

# Same assay, conditions: protein component found by mass spectrometry in amniotic fluid cell-derived ECM Matrix B (Example 1)
row,Molecule,Total Spectra Count Matrix B
1,B1,73
2,B2,80
3,B3,114
4,B4,643

# Same assay, conditions: protein component found by mass spectrometry in amniotic fluid cell-derived ECM Matrix C (Example 1)
row,Molecule,Total Spectra Count Matrix C
1,B1,8
2,B2,17
3,B3,12
4,B4,61

# Same assay, conditions: protein component found by mass spectrometry in amniotic fluid cell-derived ECM Matrix D (Example 1)
row,Molecule,Total Spectra Count Matrix D
1,B1,26
2,B2,22
3,B3,30
4,B4,50
